Laboratory results: PubChem BioAssay AID1224828 (NIAID, 2016)

Screen: 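Find genes required for NF-kappaB p65 moving into the nucleus after LPS in mouse macrophages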 (primary screen)
Cell system: mouse RAW264.7 G9 macrophage reporter cells (GFP-p65, Tnf promoter-mCherry)
Reagents: siRNA pool against mouse genes, 100 nM
Timing: 2 days siRNA transfection, then 40 min LPS before fixation
Treatment: LPS (Salmonella minnesota R595) at 10 ng/ml
Measured: 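Microscopy ratio of nuclear to perinuclear-ring GFP-p65 signal, scaled to the plate median; gene score is the average of two replicate robust z-scores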
Direction: p65 translocation robust z-score: higher = more nuclear NF-kappaB p65 after LPS than the plate median; nuclear/cytoplasmic p65 ratio: higher = more nuclear NF-kappaB p65
Active means: 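Active if robust z is above 3.3 (negative regulators) or below -1.56, the Tlr4 control median (positive regulators); activity score 50 or more; control wells not called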
Calls: active = hit (p65 shift raised or lowered); inactive = no clear change
The deposit covers about 17,000 reagents; this is a random part of them. In the full data, 762 (4.5%) are marked active. 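Active calls include both raised and lowered p65 entry, mostly lowered; wells with fewer than 50 cells lack a z-score.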 The raw values are shown without normalisation. Entries without a mark were called inactive. Reagents against one gene are numbered here. No sequences are given here.

gene symbol,reagent no.,p65 translocation robust z-score,"nuclear/cytoplasmic p65 ratio, rep 1","nuclear/cytoplasmic p65 ratio, rep 2",low cell count flag
Opcml (GeneID 330908),1,-1,1.21,1.14,enough cells to score
Top1 (GeneID 21969),1,-0.48,1.4,1.51,enough cells to score
Prkd3 (GeneID 75292),1,-0.08,1.68,1.36,enough cells to score
Nepn (GeneID 66650),1,0.09,1.36,1.49,enough cells to score
Suclg1 (GeneID 56451),1,-0.19,1.29,1.3,enough cells to score
Or5ap2 (GeneID 258573),1,0.36,1.76,1.59,enough cells to score
Adprm (GeneID 66358),1,,1.29,1.87,fewer than 50 cells per well; well left out of scoring
Fam241a (GeneID 70617),1,0.26,1.4,1.61,enough cells to score
Spata2 (GeneID 263876),1,-0.7,1.35,1.13,enough cells to score
Pcdhb16 (GeneID 93887),1,0.43,1.58,1.23,enough cells to score
Orai3 (GeneID 269999),1,-0.48,1.44,1.46,enough cells to score
Vopp1 (GeneID 232023),1,-1.12,1.31,1.48,enough cells to score
Nfil3 (GeneID 18030),1,1.55,1.73,1.54,enough cells to score
Sohlh2 (GeneID 74434),1,1.76,1.37,1.52,enough cells to score
Tmem38b (GeneID 52076),1,,1.21,1.51,fewer than 50 cells per well; well left out of scoring
Cep83 (GeneID 77048),1,,1.22,1.21,fewer than 50 cells per well; well left out of scoring

4 entries from above in another layout.
Adprm (GeneID 66358)
- nuclear/cytoplasmic p65 ratio, rep 1: 1.29
- nuclear/cytoplasmic p65 ratio, rep 2: 1.87
- low cell count flag: fewer than 50 cells per well; well left out of scoring

Fam241a (GeneID 70617)
- p65 translocation robust z-score: 0.26
- nuclear/cytoplasmic p65 ratio, rep 1: 1.4
- nuclear/cytoplasmic p65 ratio, rep 2: 1.61
- low cell count flag: enough cells to score

Spata2 (GeneID 263876)
- p65 translocation robust z-score: -0.7
- nuclear/cytoplasmic p65 ratio, rep 1: 1.35
- nuclear/cytoplasmic p65 ratio, rep 2: 1.13
- low cell count flag: enough cells to score

Pcdhb16 (GeneID 93887)
- p65 translocation robust z-score: 0.43
- nuclear/cytoplasmic p65 ratio, rep 1: 1.58
- nuclear/cytoplasmic p65 ratio, rep 2: 1.23
- low cell count flag: enough cells to score

Next reagents:
gene symbol,reagent no.,p65 translocation robust z-score,"nuclear/cytoplasmic p65 ratio, rep 1","nuclear/cytoplasmic p65 ratio, rep 2",low cell count flag
Nnmt (GeneID 18113),1,-0.71,1.35,1.32,enough cells to score
Pcdhb9 (GeneID 93880),1,0.48,1.36,1.3,enough cells to score
Arhgef37 (GeneID 328967),1,1.28,1.45,1.71,enough cells to score
Hells (GeneID 15201),1,1.79,2.01,1.71,enough cells to score
Hspb2 (GeneID 69253),1,0.57,1.46,1.5,enough cells to score
Bckdha (GeneID 12039),1,-0.25,1.57,1.58,enough cells to score
Myoz1 (GeneID 59011),1,-0.3,1.78,1.51,enough cells to score
Svs3b (GeneID 329557),1,0.05,1.41,1.58,enough cells to score
Gatb (GeneID 229487),1,0.1,1.45,1.41,enough cells to score
Oplah (GeneID 75475),1,0.83,1.55,1.23,enough cells to score
Rab13 (GeneID 68328),1,0.85,1.63,1.64,enough cells to score
Potefam1 (GeneID 67575),1,,1.28,1.44,fewer than 50 cells per well; well left out of scoring
Golga7 (GeneID 57437),1,-0.46,1.4,1.64,enough cells to score
Csrp1 (GeneID 13007),1,0.06,1.57,1.31,enough cells to score
Trim59 (GeneID 66949),1,,1.27,2.08,fewer than 50 cells per well; well left out of scoring
B3gat2 (GeneID 280645),1,2.71,1.9,1.99,enough cells to score
Rnase1 (GeneID 19752),1,1.19,1.57,1.35,enough cells to score
Csrp2 (GeneID 13008),1,-0.58,1.49,1.69,enough cells to score
Or8k30 (GeneID 258401),1,-1.01,1.54,1.4,enough cells to score
Rdh14 (GeneID 105014),1,0.98,1.61,1.28,enough cells to score
Fam135b (GeneID 70363),1,1.62,1.54,1.69,enough cells to score
Fam135b (GeneID 70363),2,0.01,1.37,1.53,enough cells to score
Sox1 (GeneID 20664),1,-1.16,1.22,1.14,enough cells to score
Pgpep1 (GeneID 66522),1,0.18,1.54,1.48,enough cells to score
